At least one compound was matched to its structure with a doubt left. Some entries share one result that the patent states for a list of compounds.
Tests used:
[1] = tested on: 4E-BP1 (Ser65); test: Western blot of phospho-4E-BP1 (Ser65) in prostate cancer cells; type: cell-based, human; conditions: both prostate cell lines (PC-3, DU145); perillyl alcohol 400 μM 16 hr, genistein 40 μM 4 hr, LY 294002 10 μM 4 hr
Experimental: We treated PC-3, DU145, and Caco-2 (colon adenocarcinoma) cells with lovastatin (LVT), perillyl alcohol (PA), the P13 kinase inhibitor, LY294002 (LY), or genistein (Gen). PC-3, DU145, and Caco-2 cells were plated in RPMI plus 10% FBS and cells allowed to grow for 24 hr. Medium was supplemented with lovastatin (1 μM for 16 hr), perillyl alcohol (400 μM for 16 hr), genistein (40 μM for 4 hr), or LY 294002 (10 μM for 4 hr). Cells were lysed in RIPA buffer and protein extracts quantitated. Aliquots (100 μg) were electrophoresed and transferred to PVDF membranes. […] The eIF4E (FIG. 6, top panel) and 4E-BP1 (FIG. 6, middle panel) were detected using antibodies specific for eIF4E and phospho-4E-BP1 (Ser65). Specific proteins were detected by ECL using a Kodak Image Station.
Referring now to FIG. 6 which depicts a Western blot analysis of eIF4E, 4E-BP1 (Ser65) and Rab3A from various cells. […] The same blot was reprobed with phospho-4E-BP1 (Ser65). […] Rab3A levels were also compared in the highly metastatic PC-3 cells, DU145 and in Caco-2, which is considered to have low metastatic potential.

[2] = tested on: HMG-CoA reductase mRNA; test: Quantitative RT-PCR of HMG-CoA reductase mRNA in DU145 cells; type: cell-based, human; conditions: DU145, 16 hr; genistein 40 μM, PD98059 50 μM; untreated approximately 5×10^6

Compound: O=c1cc(N2CCOCC2)oc2c(-c3ccccc3)cccc12 [LY294002, reference compound]
- 4E-BP1 Ser65 phosphorylation (Western blot) [1]: reduced Ser65 phosphorylation

Compound: CO[C@H]1C[C@@H]2CC[C@@H](C)[C@@](O)(O2)C(=O)C(=O)N2CCCC[C@H]2C(=O)O[C@H]([C@H](C)C[C@@H]2CC[C@@H](O)[C@H](OC)C2)CC(=O)[C@H](C)/C=C(\C)[C@@H](O)[C@@H](OC)C(=O)[C@H](C)C[C@H](C)/C=C/C=C/C=C/1C [rapamycin, reference compound]
- 4E-BP1 Ser65 phosphorylation (Western blot) [1]: suppressed Ser65 phosphorylation

Compound: O=c1c(-c2ccc(O)cc2)coc2cc(O)cc(O)c12 [Genistein, genistein]
- HMG-CoA reductase mRNA copy number [2]: 2.5 to 3.0×10^6 copies/μg RNA

Compound: COc1cccc(-c2cc(=O)c3ccccc3o2)c1N [PD98059, reference compound]
- HMG-CoA reductase mRNA copy number [2]: 2.5 to 3.0×10^6 copies/μg RNA

— patent US20040110848A1, “Method and kit for treating cancer” (priority 2002, published 2004)
